From patent publication US20230374088A1
No constants are given. Whether binding was seen depends on the method and setting. Binding seen in cells or lysates may run through a third protein. Some binding calls cover weakened binding; strength is not graded here. Tags and fused reporters may be left off the sequences shown.

Protein sequences, listed by entry. Tags and fused reporters are not part of them. Lines headed by an entry give the natural chain unless they say otherwise; changes in a name come on top. Chains listed by the source or under a name are the forms on record and can include a tag or linker. Residues count along the entry.
c-Myc-Gli2 (1-594aa) (P10070, residues 1-594): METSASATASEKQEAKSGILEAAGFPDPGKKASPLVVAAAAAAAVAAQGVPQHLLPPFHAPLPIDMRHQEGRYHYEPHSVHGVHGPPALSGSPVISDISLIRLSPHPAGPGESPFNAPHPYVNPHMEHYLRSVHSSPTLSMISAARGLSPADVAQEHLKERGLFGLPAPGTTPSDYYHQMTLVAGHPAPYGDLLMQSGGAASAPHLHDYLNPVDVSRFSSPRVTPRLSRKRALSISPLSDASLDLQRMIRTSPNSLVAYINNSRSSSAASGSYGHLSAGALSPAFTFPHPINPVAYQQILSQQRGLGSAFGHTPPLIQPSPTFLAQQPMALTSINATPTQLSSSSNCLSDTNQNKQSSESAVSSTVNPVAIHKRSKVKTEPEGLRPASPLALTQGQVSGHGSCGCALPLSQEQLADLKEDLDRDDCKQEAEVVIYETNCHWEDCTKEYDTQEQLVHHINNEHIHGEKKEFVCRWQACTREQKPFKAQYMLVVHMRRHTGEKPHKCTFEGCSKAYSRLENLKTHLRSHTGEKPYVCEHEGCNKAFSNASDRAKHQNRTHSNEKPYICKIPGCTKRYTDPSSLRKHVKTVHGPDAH
c-Myc-Gli2 (418-594aa) (P10070, residues 418-594): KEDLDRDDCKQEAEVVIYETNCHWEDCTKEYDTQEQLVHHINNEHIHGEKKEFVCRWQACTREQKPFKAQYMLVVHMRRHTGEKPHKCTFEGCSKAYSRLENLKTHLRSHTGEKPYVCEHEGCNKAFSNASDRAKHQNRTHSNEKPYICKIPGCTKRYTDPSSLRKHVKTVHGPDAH
c-Myc-Gli2 (418-594aa) ZF4-mut (R550A, K552A, R556A) (P10070, form named): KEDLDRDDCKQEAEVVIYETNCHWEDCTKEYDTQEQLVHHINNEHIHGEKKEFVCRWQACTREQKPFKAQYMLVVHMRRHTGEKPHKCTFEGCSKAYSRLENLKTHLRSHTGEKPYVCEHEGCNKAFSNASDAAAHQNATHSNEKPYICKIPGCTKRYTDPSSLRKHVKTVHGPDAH

Tests used:
[1] = target: c-Myc-Gli2 (1-594aa) (human) (UniProt P10070); experiment: pull-down on anti-FLAG beads, anti-c-myc blot, Expi293F cells
[2] = target: c-Myc-Gli2 (418-594aa) ZF4-mut (R550A, K552A, R556A) (human) (UniProt P10070); experiment: as above
[3] = target: c-Myc-Gli2 (418-594aa) (human) (UniProt P10070); experiment: pull-down on anti-FLAG beads with Kif7(460-600aa), anti-c-myc blot, Expi293F cells
[4] = target: c-Myc-Gli2 (418-594aa) (human) (UniProt P10070); experiment: pull-down on anti-FLAG beads, anti-c-myc blot, Expi293F cells

B1: FLAG-Kif7 (1-543aa) (protein, not shown: small tags and cut ends)
chain: MGLEAQRLPGAEEAPVRVALRVRPLLPKELLHGHQSCLQVEPGLGRVTLGRDRHFGFHVVLAEDAGQEAVYQACVQPLLEAFFEGFNATVFAYGQTGSGKTYTMGEASVASLLEDEQGIVPRAMAEAFKLIDENDLLDCLVHVSYLEVYKEEFRDLLEVGTASRDIQLREDERGNVVLCGVKEVDVEGLDEVLSLLEMGNAARHTGATHLNHLSSRSHTVFTVTLEQRGRAPSRLPRPAPGQLLVSKFHFVDLAGSERVLKTGSTGERLKESIQINSSLLALGNVISALGDPQRRGSHIPYRDSKITRILKDSLGGNAKTVMIACVSPSSSDFDETLNTLNYASRAQNIRNRATVNWRPEAERPPEETASGARGPPRHRSETRIIHRGRRAPGPATASAAAAMRLGAECARYRACTDAAYSLLRELQAEPGLPGAAARKVRDWLCAVEGERSALSSASGPDSGIESASVEDQAAQGAGGRKEDEGAQQLLTLQNQVARLEEENRDFLAALEDAMEQYKLQSDRLREQQEEMVELRLRLELVRP
For B1, the binding [1] was “binds”.

B2: FLAG-Kif7-CC (460-600aa) (protein, not shown: small tags and cut ends)
chain: PDSGIESASVEDQAAQGAGGRKEDEGAQQLLTLQNQVARLEEENRDFLAALEDAMEQYKLQSDRLREQQEEMVELRLRLELVRPGWGGPRLLNGLPPGSFVPRPHTAPLGGAHAHVLGMVPPACLPGDEVGSEQRGEQVTN
In the case of B2, the binding [1] is reported as “binds”, the binding [2] is reported as “binds” and the binding [3] is reported as “binds”.

B3: FLAG-Kif7-SCC (481-543aa) (protein, not shown: small tags and cut ends)
chain: KEDEGAQQLLTLQNQVARLEEENRDFLAALEDAMEQYKLQSDRLREQQEEMVELRLRLELVRP
For B3, the binding [1] was “binds”.

B4: FLAG-Kif7-CC (460-600aa) S2-mut (E511A, E515A) (protein, not shown: small tags and cut ends)
chain: PDSGIESASVEDQAAQGAGGRKEDEGAQQLLTLQNQVARLEEENRDFLAALADAMAQYKLQSDRLREQQEEMVELRLRLELVRPGWGGPRLLNGLPPGSFVPRPHTAPLGGAHAHVLGMVPPACLPGDEVGSEQRGEQVTN
For B4, the binding [4] was “binds”.

B5: FLAG-Kif7-CC (460-600aa) S3-mut1 (E526A, E529A) (protein, not shown: small tags and cut ends)
chain: PDSGIESASVEDQAAQGAGGRKEDEGAQQLLTLQNQVARLEEENRDFLAALEDAMEQYKLQSDRLRAQQAEMVELRLRLELVRPGWGGPRLLNGLPPGSFVPRPHTAPLGGAHAHVLGMVPPACLPGDEVGSEQRGEQVTN
For B5, the binding [4] was “binds”.

B6: FLAG-Kif7-CC (460-600aa) S3-mut2 (E530A, R535A) (protein, not shown: small tags and cut ends)
chain: PDSGIESASVEDQAAQGAGGRKEDEGAQQLLTLQNQVARLEEENRDFLAALEDAMEQYKLQSDRLREQQEAMVELALRLELVRPGWGGPRLLNGLPPGSFVPRPHTAPLGGAHAHVLGMVPPACLPGDEVGSEQRGEQVTN
For B6, the binding [4] was “binds”.
